The whole screen tested about 400,000 compounds, of which about 13,000 (3.2%) were called active. The shares of active, inactive and inconclusive entries below differ from those in the screen. The call rests on the fitted dose curve; in most records, active means well fitted cell-killing curve with a large enough effect; inconclusive means small, poorly fitted or top-dose-only effect, or effect the other way; inactive means flat fitted curve, though single readings scatter. Potencies beside an inconclusive call are fits to weak or partial responses and may not hold up.
Test: qHTS assay for MDR1-selective chemotherapeutics: Primary screen using the drug-selected MDR subline cells KB-V1; further: nearly all actives have a fitted effect of over 60% in size
Settings: KB-V1 MDR cells viability, CellTiter-Glo, 72 h; activity change, negative = cytotoxicity: at 46.1 µM (top of the series)
Summary of the method: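 Drug-selected KB-V1 cells, grown in DMEM lacking phenol red with 10% FBS, receive compound titrations; after three days at 37 degrees C, surviving cell ATP is quantified by CellTiter-Glo luminescence and responses normalized and curve-fitted.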
On the % scale 0 is the no-effect control and ±100 the full control effect; potency means the concentration at half of the fitted maximal effect.

Structure (SMILES)	Potency	activity change, negative = cytotoxicity
CCN(CC)CC#CCOC(=O)C(O)(c1ccccc1)C1CCCCC1 (configuration not stated)	inconclusive: 7.31 µM [cytotoxic, partial curve]	
CCOC(=O)C1CCN(C(=O)c2ccccc2)c2scc(-c3ccccc3)c2C1=O (configuration not stated)	inconclusive: 29.1 µM [cytotoxic, single point]	
COc1ccccc1N(CC(=O)NCCSCc1ccc(C)cc1)S(=O)(=O)c1ccccc1	inconclusive: 29.1 µM [cytotoxic, single point]	
Cn1c(SCC(=O)N2c3ccccc3Sc3ccc(Cl)cc32)nnc1-c1ccco1	active: 23.1 µM	
CN(C)c1ccc(/C=C(/NC(=O)c2ccccc2)C(=O)NCCN2CCOCC2)cc1		inactive: 17.6%
COc1ccccc1C1(O)C(=O)Nc2ccc(C)cc21 (configuration not stated)		inactive: 2.26%
Cn1c(SCC(=O)Nc2cc([N+](=O)[O-])ccc2F)nnc1C(F)(F)F	inconclusive: 29.1 µM [cytotoxic, single point]	
CCN(CC)CCNC(=O)c1c(C)oc2ncn(C)c(=O)c12		inactive: -9.4%
COc1ccc(CNC(=O)c2cc(COc3c(F)cccc3F)on2)cc1OC	inconclusive: 20.6 µM [cytotoxic, single point]	
CCN(CC)C(=O)c1cccc(NC(=O)CCc2nc3sc4c(c3c(=O)[nH]2)CCCC4)c1	inconclusive: 0.731 µM [rising, full curve, poor fit]	
CC1CN(S(=O)(=O)c2ccc(C(=O)Nc3ccc(S(=O)(=O)N4CCOCC4)cc3)cc2)CC(C)O1 (configuration not stated)		inactive: -19.7%
CC(C)(C)NC(=O)c1cccc(NC(=O)Cc2cccs2)c1	inconclusive: 25.9 µM [cytotoxic, single point]	
CCCCc1c(C)c(C#N)c2[nH]c3ccccc3n2c1=O	inconclusive: 29.1 µM [cytotoxic, single point]	
CSc1nc(N)nc2c1ncn2CC(=O)NCCNc1ccc([N+](=O)[O-])cn1	inconclusive: 9.2 µM [rising, partial curve]	
COC(=O)c1cc(=O)nc(NN=C2c3ccccc3-c3ccccc32)s1		inactive: -8.17%
O=C(N/N=C\c1ccc(Cl)cc1Cl)c1sccc1-n1cccc1	inconclusive: 16.4 µM [cytotoxic, single point]	
Oc1ccc(CNc2ccc(F)cc2)c2cccnc12		inactive: -8.61%
N#Cc1nc(-c2cccs2)oc1NCCc1ccccc1		inactive: -1.58%
Cc1cccc(C)c1NC(=O)Cn1cc(C=O)c2ccccc21		inactive: 5.94%
CCOC(=O)C1(CCOC)CCN(Cc2nc(C(C)C)cs2)CC1	inconclusive: 29.1 µM [cytotoxic, single point]	
O=C(CSC1=NS(=O)(=O)c2ccccc2N1)NCCc1ccccc1	inconclusive: 29.1 µM [rising, single point]	
O=C1NC(=S)SC1=Cc1cccs1		inactive: -9.46%
CC1(C)Cc2nc3sc4c(SCC(=O)O)ncnc4c3cc2CO1	inconclusive: 23.1 µM [rising, partial curve, poor fit]	
O=C(NCc1ccc(F)cc1)c1[nH]c(C(F)(F)F)nc1-c1ccccc1		inactive: 5.08%

Structure (SMILES)	Potency	activity change, negative = cytotoxicity
O=C(Nc1ccc(S(=O)(=O)N2CCOCC2)cc1)c1ccc(Br)o1	inconclusive: 32.6 µM [cytotoxic, single point]	
O=C(NCCc1ccccc1)c1nc2nc(-c3cccs3)cc(C(F)(F)F)n2n1	inconclusive: 18.4 µM [cytotoxic, partial curve]	
Cc1cc(/C=N/NC(=O)c2ccc(CN3CCOCC3)cc2)c(C)n1-c1ccccc1	active: 16.4 µM	
S=C(NCCSCc1ccc(Cl)cc1)Nc1ccccc1	inconclusive: 29.1 µM [cytotoxic, single point]	
CC(C)OCCCNC(=O)C(C)Oc1ccccc1 (configuration not stated)	inconclusive: 16.4 µM [cytotoxic, partial curve]	
Cc1noc(C)c1COc1cccc(C(=O)Nc2ccc(Br)cc2F)c1	active: 2.91 µM	
CCOc1cc(N2CCOCC2)c(OCC)cc1NC(=O)c1[nH]c(C)c(C(C)=O)c1C		inactive: -6.29%
N#CC1=C(N)N(c2ccccc2)C2=C(C(=O)CCC2)C1c1ccsc1 (configuration not stated)	inconclusive: 9.2 µM [cytotoxic, partial curve]	
CC1=C(C(=O)N(C(C)C)C(C)C)CC(CC(=O)NCc2ccco2)C(=O)N1CCCN1CCCC1=O (configuration not stated)		inactive: -11.8%
O=C(NCCCn1ccnc1)c1ccc2ccccc2c1		inactive: -2.62%
CCc1noc(C)c1C(=O)Nc1nc(-c2cccs2)cs1	inconclusive: 29.1 µM [cytotoxic, single point]	
CCC(NC(=O)c1cc(COc2cncc(Cl)c2)on1)c1ccncc1 (configuration not stated)		inactive: 8.82%
O=C(CC[C@H]1O[C@@H](n2ccc(=O)[nH]c2=O)[C@H](O)[C@@H]1O)N[C@H](Cc1ccccc1)C(=O)NC1CCCCC1		inactive: -8.84%
CC1=C(c2ccc(C)c(C)c2)S(=O)(=O)N=C1N1CCC(C(=O)N2CCC(C(N)=O)CC2)CC1		inactive: -3.8%
COc1ccc(CC(=O)OCC(=O)Nc2c(C)n(C)n(-c3ccccc3)c2=O)cc1OC	inconclusive: 29.1 µM [rising, single point]	
Cc1ccc(NC(=O)CSCC(=O)Nc2ncc3c(n2)CC(c2ccco2)CC3=O)cc1 (configuration not stated)	inconclusive: 29.1 µM [rising, single point]	
OC(COCCC12CC3CC(CC(C3)C1)C2)CN1CCCCC1 (configuration not stated)	inconclusive: 29.1 µM [cytotoxic, single point]	
CCN(C(=O)C1CCC(CNS(=O)(=O)c2cccc3nsnc23)CC1)c1ccc(C)c(C)c1 (configuration not stated)	inconclusive: 3.26 µM [cytotoxic, partial curve]	
Cc1cccc(CN2CCC(CNC(=O)c3c(C)oc4ncnc(N5CCCCC5)c34)CC2)c1		inactive: -1.41%
CC1=CC(C)(C)N(S(=O)(=O)c2ccc(F)cc2)c2ccccc21		inactive: 11.8%
COc1ccc(NC(=O)CSc2nnc(-c3ccccc3Cl)n2Cc2ccco2)c(OC)c1		inactive: 0%
FC(F)(F)c1cccc(Oc2cc(C(F)(F)F)nc(-c3ccccn3)n2)c1	inconclusive: 14.6 µM [cytotoxic, partial curve]	
O=C(c1cccs1)N1CCCc2ccccc21	inconclusive: 16.4 µM [cytotoxic, partial curve, poor fit]	

An excerpt from the list above, for reference:
Structure (SMILES)	Potency	activity change, negative = cytotoxicity
CC1=CC(C)(C)N(S(=O)(=O)c2ccc(F)cc2)c2ccccc21		inactive: 11.8%
COc1ccc(NC(=O)CSc2nnc(-c3ccccc3Cl)n2Cc2ccco2)c(OC)c1		inactive: 0%
FC(F)(F)c1cccc(Oc2cc(C(F)(F)F)nc(-c3ccccn3)n2)c1	inconclusive: 14.6 µM [cytotoxic, partial curve]	
O=C(c1cccs1)N1CCCc2ccccc21	inconclusive: 16.4 µM [cytotoxic, partial curve, poor fit]	

From PubChem BioAssay AID1347076 (National Center for Advancing Translational Sciences (NCATS), 2019)
